Assay [1] concerns the target T1, human BAI1 (plate-coated, ELISA) (human) (UniProt O14514).
T1 sequence: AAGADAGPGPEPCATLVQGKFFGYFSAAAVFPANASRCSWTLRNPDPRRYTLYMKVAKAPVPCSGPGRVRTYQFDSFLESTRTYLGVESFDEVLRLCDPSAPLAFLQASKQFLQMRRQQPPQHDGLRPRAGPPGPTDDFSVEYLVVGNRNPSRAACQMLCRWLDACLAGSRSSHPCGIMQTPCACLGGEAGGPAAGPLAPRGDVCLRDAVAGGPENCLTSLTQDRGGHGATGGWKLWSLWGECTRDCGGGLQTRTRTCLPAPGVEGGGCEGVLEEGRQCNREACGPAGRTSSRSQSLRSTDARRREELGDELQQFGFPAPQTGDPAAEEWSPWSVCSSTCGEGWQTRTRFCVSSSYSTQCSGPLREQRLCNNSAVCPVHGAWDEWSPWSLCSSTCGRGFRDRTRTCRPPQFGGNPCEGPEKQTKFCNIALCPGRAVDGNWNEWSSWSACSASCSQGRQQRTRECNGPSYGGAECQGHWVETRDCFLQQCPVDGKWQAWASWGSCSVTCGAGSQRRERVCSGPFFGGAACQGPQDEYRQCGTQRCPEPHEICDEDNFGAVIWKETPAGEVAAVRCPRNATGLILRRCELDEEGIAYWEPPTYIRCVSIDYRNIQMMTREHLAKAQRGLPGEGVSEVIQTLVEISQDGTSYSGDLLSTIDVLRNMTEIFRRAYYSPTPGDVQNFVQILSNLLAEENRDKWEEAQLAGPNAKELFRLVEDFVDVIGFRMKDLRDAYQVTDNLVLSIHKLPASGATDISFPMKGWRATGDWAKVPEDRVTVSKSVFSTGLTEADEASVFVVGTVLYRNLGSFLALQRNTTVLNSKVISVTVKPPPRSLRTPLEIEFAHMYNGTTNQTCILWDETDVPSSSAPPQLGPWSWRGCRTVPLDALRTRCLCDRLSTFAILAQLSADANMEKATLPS
Kind of assay: ELISA, plate coated with 2 µg/ml human BAI1; anti-human Fc HRP detection.

For assay [2], the target named is T1, human BAI1 (plate-coated, ELISA) (human). Nature of the assay: ELISA on plate-coated human BAI1 (2 ug/ml), detected with HRP anti-human Fc.

Results are given in words; binding and its absence hold for the method and conditions named. Some binding calls cover weakened binding; strength is not graded here.

B1: G8 IgG (humanized anti-BAI1 IgG) (antibody, V domains shown)
VH: VQLQESGPGLVKPSQSLSLTCTVTGYSITSDYAWNWIRQFPGNKLEWMGYISYSGSTSYNPSLKSRISITRDTSKNQFFLQLNSVTTEDTATYYCANAQGYAMDYWGQGTSVTVSS
VL: DIVMTQSPATLSVTPGDRVSLSCRASQSISDYLHWYQQKSHESPRLLIKYASQSISGIPSRFSGSGSGSDFTLSINSVEPEDVGVYYCQNGHSFPFTFGSGTKLEIKR
Take B1: the binding entry in assay [1] and in assay [2] was “binds” in each case.

(Values after patent US20210130448A1.)
